Among all 1,200 compounds or so, fewer than 10 were called active.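 Rule for the calls: active = inhibition reaching a set limit at one or more tested concentrations; inactive = inhibition under that limit at every dose.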 Some of the results follow. Results with a measured potency or affinity are listed apart.
Assay: RAM pathway signaling blockade in S. cerevisiae – dose response (AID 1307);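 note: 0% = DMSO vehicle wells and 100% = 10 µM 1-NA-PP1 control; higher inhibition means more yeast growth since RAM block rescues cells from 5-FOA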
Conditions: S. cerevisiae RAM network URA3 reporter, 5-FOA growth OD615, stronger effect = higher value, yeast express analog-sensitive mutant Cbk1 kinase; at 100 µM unless noted

Max inhibition, inactive:
CCCSc1nc(SCC(=O)NCc2ccccc2)c2c3c(sc2n1)COC(C)(CC)C3 (stereo unspecified) 4.24%
CCCCOc1ccc(/C=C2/Sc3ccccc3C2=O)cc1 4.33%
CCOC(=O)/C(=N/Nc1ccccc1)c1csc(Nc2ccccc2)n1 2.72%
COC(=O)c1sccc1-c1ccc(/C=N/OCc2c(Cl)cccc2Cl)o1 4.32% [at 3.125 µM]
C=CCn1c(SCCC)nc2sc3c(c2c1=O)CCc1ccccc1-3 2.79% [at 50 µM]
COc1ccc(Cc2nc(C(=O)Nc3ccc(F)cc3)cs2)cc1 2.74% [at 6.25 µM]
O=C(/C=C/c1ccc(-c2ccccc2[N+](=O)[O-])o1)c1ccc(Br)cc1 2.29% [at 12.5 µM]
COC(=O)Cc1ccc(N(Cc2ccccc2F)S(=O)(=O)c2ccc(C)cc2)cc1 3.54%
Cc1cccc(COCC(Cc2ccccc2)N2CCN(C(=O)c3ccc(C(F)(F)F)cc3)CCC2=O)c1 (stereo unspecified) 3.28% [at 0.782 µM]
O=C(COC(=O)c1ccccc1C(=O)c1ccccc1)Nc1ccc(SC(F)F)cc1 1.63% [at 1.563 µM]
CNC(=S)N1N=C(c2ccc(C)cc2)CC1c1ccc(Br)cc1 (stereo unspecified) 1.58% [at 0.196 µM]
CCOC(=O)c1ccccc1NC(=O)c1c(O)c2ccccc2n(CC)c1=O 1.76%
Cc1cccc(-n2c(SCC(=O)Nc3cccc(S(=O)(=O)NC4=NCCCCC4)c3)nc3ccccc3c2=O)c1C 6.73%
CC(C)=CCC/C(C)=C/Cc1c(O)ccc(C(=O)/C=C/c2ccc(O)cc2)c1O 5.39%
CCCCNS(=O)(=O)c1ccc(NS(=O)(=O)c2c(C)cc(C)cc2C)cc1 2.98% [at 0.196 µM]
CCCSc1nc(NCc2ccco2)c2c3c(sc2n1)COC(C)(C)C3 3.51%
Cc1ccc(S(=O)(=O)NCCC(c2ccccc2)c2ccco2)cc1 (stereo unspecified) 2.13%
O=C(CSCc1ccc(Br)cc1)Nc1ccc(S(=O)(=O)N2CCCCCC2)cc1 3.55% [at 1.563 µM]
CC(C)C[C@H](NC(=O)c1nc[nH]c1C(=O)NCc1ccccc1)C(=O)OCc1ccccc1 8.62%
Cc1ccccc1NS(=O)(=O)c1cc(C(=O)NCCSC2CCCCC2)ccc1C 4.22%
Cc1ccc(OCCn2cc(/C=C(\C#N)C(=O)NCC3CCCO3)c3ccccc32)cc1C (stereo unspecified) 8.12%
COc1ccccc1OCCNS(=O)(=O)c1ccc2oc3ccccc3c2c1 3.16% [at 50 µM]
C/C(=N\OC(=O)c1ccc(Cl)cc1)c1sc(-c2ccccc2)nc1C 4.25%
CN(C)c1oc(-c2ccc(OCc3ccccc3)cc2)nc1C#N 3.6% [at 50 µM]
O=C1Nc2ccccc2/C1=N\N=C\C1=C(N2CCOCC2)C(=C\c2ccccc2)/CC1 19.6%
CCC(CC)COC(=O)C(C#N)c1nc2ccccc2nc1N1CCOCC1 (stereo unspecified) 5.41%
CCN(c1ccccc1)S(=O)(=O)c1ccc(NCC2COc3ccccc3O2)nc1 (stereo unspecified) 6.97%
Cc1ccc(CSc2nc3sc(C)c(C)c3c(=O)n2Cc2ccco2)cc1 4.96%
COC(=O)c1ccc(OC)c(CSc2nnc(-c3ccc(C(C)(C)C)cc3)o2)c1 5.66%
Cc1ccccc1CSCCNC(=O)c1ccc(N(C)S(=O)(=O)c2ccccc2)cc1 3.88%
Cc1ccc(-n2c(O)c(/C=N/c3ncn[nH]3)c3ccccc3c2=O)cc1 10.6%
CC(C)c1ccc(/C=C(\c2nc3ccccc3[nH]2)S(=O)(=O)c2ccccc2)cc1 0.48% [at 12.5 µM]
CCOC(=O)c1c(C)[nH]c(N=Nc2ccccc2C)c1C 3.75%
CSc1ccc(Cl)c(C(=O)NCCOc2cc(C(C)C)ccc2C)c1 4.59%
Cc1cc(C)c(OCCNC(=O)c2ccccc2Sc2ccccc2C#N)c(C)c1 3.53% [at 50 µM]
Cc1ccc(-c2noc(CCC(=O)N3CCN(c4cccc(C(F)(F)F)c4)CC3)n2)cc1 4.28% [at 0.782 µM]
C=CCn1c(SCc2csc(C)n2)nc2sc3c(c2c1=O)CCCCC3 3.66%
COc1cc(OC)cc(-c2nnc(SCc3cccc(C(=O)O)c3)o2)c1 3.7%
CCc1cc2c(=O)n(Cc3ccco3)c(SCc3c(C)noc3C)nc2s1 4.93% [at 50 µM]
Cc1ccc(/C=C/C(=O)OCC(=O)Nc2ccccc2Sc2ccccc2)cc1 4.49% [at 50 µM]
O=C(C1CC1)N(Cc1ccco1)c1nc(-c2ccccc2)cs1 1.18%
O=C(CCC(=O)OCCCC(F)(F)C(F)(F)F)Nc1ccc(Cl)cc1Cl 2.26% [at 25 µM]
CCCCOC(=O)c1ccc(NC(=O)c2c(Cl)ccc(Cl)c2OC)cc1 2.55% [setting not given]
CSCCC(NS(=O)(=O)c1ccc2ccccc2c1)C(=O)OCC(=O)c1ccc(C(C)C)cc1 (stereo unspecified) 4.33%
CCSC1=N/C(=C\c2ccc(-c3ccccc3[N+](=O)[O-])o2)C(=O)S1 5.47% [at 25 µM]
COCCn1c(=NC(=O)c2sc3ccccc3c2Cl)sc2cc(S(N)(=O)=O)ccc21 4.98% [at 50 µM]
CCOC(=O)/C(C#N)=C(C)/C=C1\Sc2ccccc2N1CC 5.66%
S=C(NCCC(c1ccccc1)c1ccccc1)Nc1cccc(Cl)c1 6.71%
COCCCNC(=O)c1ccc(Cn2c(=O)c3ccccc3n(Cc3ccc(C)cc3)c2=O)cc1 1.8% [at 25 µM]
CCCCCCOc1ccc(NC(=O)CC2C(=O)N(CC)C(=S)N2Cc2ccco2)cc1 (stereo unspecified) 4.43% [at 25 µM]
COc1cccc(C(=O)C2CN(c3ccccc3)CC2c2ccc(Cl)cc2)c1 (stereo unspecified) 5.04% [at 50 µM]

Fetched by compound from above:
Max inhibition, inactive:
CCSC1=N/C(=C\c2ccc(-c3ccccc3[N+](=O)[O-])o2)C(=O)S1 5.47% [at 25 µM]
CC(C)C[C@H](NC(=O)c1nc[nH]c1C(=O)NCc1ccccc1)C(=O)OCc1ccccc1 8.62%
